Experimental data: patent US20090298155A1
Results are given in words; binding and its absence hold for the method and conditions named. Binding seen in cells or lysates may run through a third protein. Some binding calls cover weakened binding; strength is not graded here.

Chains of the proteins cited; added tags and fusions are not shown. Residues count along the entry.
UniProt Q60636: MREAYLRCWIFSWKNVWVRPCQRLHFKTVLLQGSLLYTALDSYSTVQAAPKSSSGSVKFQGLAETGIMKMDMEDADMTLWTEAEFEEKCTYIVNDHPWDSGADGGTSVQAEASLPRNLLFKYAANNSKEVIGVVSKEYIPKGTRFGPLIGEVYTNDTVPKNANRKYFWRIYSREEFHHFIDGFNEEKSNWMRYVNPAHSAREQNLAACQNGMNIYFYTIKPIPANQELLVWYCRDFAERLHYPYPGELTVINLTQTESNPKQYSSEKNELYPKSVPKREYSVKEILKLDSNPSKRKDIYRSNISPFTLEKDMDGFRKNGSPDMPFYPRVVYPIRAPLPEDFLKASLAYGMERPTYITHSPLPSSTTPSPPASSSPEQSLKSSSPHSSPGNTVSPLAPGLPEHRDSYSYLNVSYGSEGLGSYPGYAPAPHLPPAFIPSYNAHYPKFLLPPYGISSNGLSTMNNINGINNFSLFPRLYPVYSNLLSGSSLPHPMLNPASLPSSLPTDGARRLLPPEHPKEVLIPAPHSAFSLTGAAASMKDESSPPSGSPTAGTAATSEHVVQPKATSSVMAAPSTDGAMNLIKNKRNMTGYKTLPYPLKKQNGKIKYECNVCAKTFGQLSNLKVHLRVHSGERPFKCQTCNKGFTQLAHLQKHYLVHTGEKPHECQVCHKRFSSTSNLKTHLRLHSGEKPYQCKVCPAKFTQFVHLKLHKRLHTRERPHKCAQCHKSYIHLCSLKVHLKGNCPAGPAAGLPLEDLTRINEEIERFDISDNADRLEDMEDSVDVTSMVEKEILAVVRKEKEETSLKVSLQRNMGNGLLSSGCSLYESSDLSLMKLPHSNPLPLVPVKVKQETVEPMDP
UniProt O14744: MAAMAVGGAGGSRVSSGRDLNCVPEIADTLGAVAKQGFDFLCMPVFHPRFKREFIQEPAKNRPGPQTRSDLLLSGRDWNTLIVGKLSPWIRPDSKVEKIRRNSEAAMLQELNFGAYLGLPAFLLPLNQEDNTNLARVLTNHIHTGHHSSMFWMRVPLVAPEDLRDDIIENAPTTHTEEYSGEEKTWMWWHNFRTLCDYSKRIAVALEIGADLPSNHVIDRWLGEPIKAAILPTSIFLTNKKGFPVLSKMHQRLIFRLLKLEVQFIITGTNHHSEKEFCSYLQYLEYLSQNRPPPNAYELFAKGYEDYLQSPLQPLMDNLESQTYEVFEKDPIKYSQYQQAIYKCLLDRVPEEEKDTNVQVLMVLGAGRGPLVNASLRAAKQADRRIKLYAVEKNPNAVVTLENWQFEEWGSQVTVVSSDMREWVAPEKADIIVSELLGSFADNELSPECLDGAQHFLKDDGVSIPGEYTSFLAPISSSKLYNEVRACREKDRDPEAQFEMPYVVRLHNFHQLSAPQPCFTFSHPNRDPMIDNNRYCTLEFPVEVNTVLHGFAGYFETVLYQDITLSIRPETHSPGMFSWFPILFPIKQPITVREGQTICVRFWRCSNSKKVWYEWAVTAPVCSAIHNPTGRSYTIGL
UniProt Q8CIG8, residues 2-637: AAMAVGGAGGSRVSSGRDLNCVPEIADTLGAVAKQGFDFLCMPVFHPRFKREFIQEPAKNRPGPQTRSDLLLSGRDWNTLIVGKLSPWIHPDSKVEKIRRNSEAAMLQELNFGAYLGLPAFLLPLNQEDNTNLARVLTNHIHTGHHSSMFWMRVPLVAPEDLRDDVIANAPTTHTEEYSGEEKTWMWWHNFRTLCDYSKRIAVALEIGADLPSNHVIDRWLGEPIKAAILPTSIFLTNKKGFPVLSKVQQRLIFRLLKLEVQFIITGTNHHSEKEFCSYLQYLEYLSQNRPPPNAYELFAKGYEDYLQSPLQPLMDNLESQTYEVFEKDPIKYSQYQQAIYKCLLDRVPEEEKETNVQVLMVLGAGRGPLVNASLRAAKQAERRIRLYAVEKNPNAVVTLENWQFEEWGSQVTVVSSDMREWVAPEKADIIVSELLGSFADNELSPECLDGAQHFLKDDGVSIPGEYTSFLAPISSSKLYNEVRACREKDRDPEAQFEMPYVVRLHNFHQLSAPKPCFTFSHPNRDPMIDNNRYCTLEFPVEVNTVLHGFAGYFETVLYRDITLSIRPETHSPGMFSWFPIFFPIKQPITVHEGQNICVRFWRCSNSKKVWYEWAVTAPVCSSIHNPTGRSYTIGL

How the values were obtained:
[1] = target: Myc-tagged mouse Blimp1 (mouse) (UniProt Q60636); assay: reciprocal co-immunoprecipitation with Prmt5 antibodies from 293T cell extracts, Western blot
[2] = target: endogenous Prmt5 in 293T cells (UniProt O14744); assay: co-immunoprecipitation with Myc antibodies from 293T cell extracts, Western blot
[3] = target: endogenous Prmt5 in mouse EC (P19) cells (mouse) (UniProt Q8CIG8); assay: co-immunoprecipitation with Prmt5 antibodies from P19 cell extracts, Western blot

binding [1]	binding [2]	binding [3]	Substance
binds	–	–	endogenous Prmt5 in 293T cells (from UniProt O14744 1-637) (enzyme)
–	binds	binds	Myc-tagged mouse Blimp1 (from UniProt Q60636 1-856)
